{
  "source": "paper PMC6662699",
  "binders": {"B1": {"name": "GFP-Cep131 (protein, UniProt Q9UPN4 1-1083)", "chain": "MKGTRAIGSVPERSPAGVDLSLTGLPPPVSRRPGSAATTKPIVRSVSVVTGSEQKRKVLEATGPGGSQAINNLRRSNSTTQVSQPRSGSPRPTEPTDFLMLFEGSPSGKKRPASLSTAPSEKGATWNVLDDQPRGFTLPSNARSSSALDSPAGPRRKECTVALAPNFTANNRSNKGAVGNCVTTMVHNRYTPSERAPPLKSSNQTAPSLNNIIKAATCEGSESSGFGKLPKNVSSATHSARNNTGGSTGLPRRKEVTEEEAERFIHQVNQATVTIQRWYRHQVQRRGAGAARLEHLLQAKREEQRQRSGEGTLLDLHQQKEAARRKAREEKARQARRAAIQELQQKRALRAQKASTAERGPPENPRETRVPGMRQPAQELSPTPGGTAHQALKANNTGGGLPAAGPGDRCLPTSDSSPEPQQPPEDRTQDVLAQDAAGDNLEMMAPSRGSAKSRGPLEELLHTLQLLEKEPDVLPRPRTHHRGRYAWASEVTTEDDASSLTADNLEKFGKLSAFPEPPEDGTLLSEAKLQSIMSFLDEMEKSGQDQLDSQQEGWVPEAGPGPLELGSEVSTSVMRLKLEVEEKKQAMLLLQRALAQQRDLTARRVKETEKALSRQLQRQREHYEATIQRHLAFIDQLIEDKKVLSEKCEAVVAELKQEDQRCTERVAQAQAQHELEIKKLKELMSATEKARREKWISEKTKKIKEVTVRGLEPEIQKLIARHKQEVRRLKSLHEAELLQSDERASQRCLRQAEELREQLEREKEALGQQERERARQRFQQHLEQEQWALQQQRQRLYSEVAEERERLGQQAARQRAELEELRQQLEESSSALTRALRAEFEKGREEQERRHQMELNTLKQQLELERQAWEAGRTRKEEAWLLNREQELREEIRKGRDKEIELVIHRLEADMALAKEESEKAAESRIKRLRDKYEAELSELEQSERKLQERCSELKGQLGEAEGENLRLQGLVRQKERALEDAQAVNEQLSSERSNLAQVIRQEFEDRLAASEEETRQAKAELATLQARQQLELEEVHRRVKTALARKEEAVSSLRTQHEAAVKRADHLEELLEQHRRPTPSTK"}, "B2": {"name": "Endogenous Cep131 (protein, UniProt Q9UPN4 1-1083)", "chain": "B1 chain"}, "B3": {"name": "His-Cep131 (1-911 aa) (domain or fragment, UniProt Q9UPN4 1-911)", "chain": "MKGTRAIGSVPERSPAGVDLSLTGLPPPVSRRPGSAATTKPIVRSVSVVTGSEQKRKVLEATGPGGSQAINNLRRSNSTTQVSQPRSGSPRPTEPTDFLMLFEGSPSGKKRPASLSTAPSEKGATWNVLDDQPRGFTLPSNARSSSALDSPAGPRRKECTVALAPNFTANNRSNKGAVGNCVTTMVHNRYTPSERAPPLKSSNQTAPSLNNIIKAATCEGSESSGFGKLPKNVSSATHSARNNTGGSTGLPRRKEVTEEEAERFIHQVNQATVTIQRWYRHQVQRRGAGAARLEHLLQAKREEQRQRSGEGTLLDLHQQKEAARRKAREEKARQARRAAIQELQQKRALRAQKASTAERGPPENPRETRVPGMRQPAQELSPTPGGTAHQALKANNTGGGLPAAGPGDRCLPTSDSSPEPQQPPEDRTQDVLAQDAAGDNLEMMAPSRGSAKSRGPLEELLHTLQLLEKEPDVLPRPRTHHRGRYAWASEVTTEDDASSLTADNLEKFGKLSAFPEPPEDGTLLSEAKLQSIMSFLDEMEKSGQDQLDSQQEGWVPEAGPGPLELGSEVSTSVMRLKLEVEEKKQAMLLLQRALAQQRDLTARRVKETEKALSRQLQRQREHYEATIQRHLAFIDQLIEDKKVLSEKCEAVVAELKQEDQRCTERVAQAQAQHELEIKKLKELMSATEKARREKWISEKTKKIKEVTVRGLEPEIQKLIARHKQEVRRLKSLHEAELLQSDERASQRCLRQAEELREQLEREKEALGQQERERARQRFQQHLEQEQWALQQQRQRLYSEVAEERERLGQQAARQRAELEELRQQLEESSSALTRALRAEFEKGREEQERRHQMELNTLKQQLELERQAWEAGRTRKEEAWLLNREQELREEIRKGRDKEIELVIHRLEADM"}},
  "key": {"[1]": {"molecular_target": "T1, Myc-Plk4 (UniProt O00444)", "T1 sequence": "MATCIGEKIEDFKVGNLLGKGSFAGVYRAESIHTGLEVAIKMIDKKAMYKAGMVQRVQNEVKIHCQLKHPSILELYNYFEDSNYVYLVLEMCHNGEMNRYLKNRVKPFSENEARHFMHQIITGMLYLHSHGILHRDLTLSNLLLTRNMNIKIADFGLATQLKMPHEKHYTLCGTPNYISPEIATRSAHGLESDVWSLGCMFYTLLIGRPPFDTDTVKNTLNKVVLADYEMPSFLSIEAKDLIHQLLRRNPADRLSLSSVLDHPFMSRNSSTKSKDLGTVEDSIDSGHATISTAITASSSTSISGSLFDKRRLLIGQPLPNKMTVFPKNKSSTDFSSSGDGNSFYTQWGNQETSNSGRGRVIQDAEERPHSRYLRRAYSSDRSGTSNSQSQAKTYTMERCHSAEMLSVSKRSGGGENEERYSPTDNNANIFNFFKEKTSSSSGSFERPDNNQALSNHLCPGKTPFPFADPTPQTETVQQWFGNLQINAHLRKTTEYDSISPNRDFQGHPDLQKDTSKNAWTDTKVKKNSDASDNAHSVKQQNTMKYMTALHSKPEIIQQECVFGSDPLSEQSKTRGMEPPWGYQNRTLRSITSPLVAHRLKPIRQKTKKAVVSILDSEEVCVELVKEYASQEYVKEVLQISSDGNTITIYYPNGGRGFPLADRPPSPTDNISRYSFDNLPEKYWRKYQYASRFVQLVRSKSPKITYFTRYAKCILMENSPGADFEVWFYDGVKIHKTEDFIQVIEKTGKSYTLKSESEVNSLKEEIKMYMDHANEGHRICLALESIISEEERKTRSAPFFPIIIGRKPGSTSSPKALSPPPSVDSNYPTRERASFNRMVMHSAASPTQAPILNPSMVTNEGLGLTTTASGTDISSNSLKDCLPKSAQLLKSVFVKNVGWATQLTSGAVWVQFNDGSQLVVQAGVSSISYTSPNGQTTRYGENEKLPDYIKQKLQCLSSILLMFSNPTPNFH", "test": "co-IP; HEK293T cells co-expressing Myc-Plk4 and GFP-Cep131; Myc-magnetic beads, 2 h at 4 °C; TBSN buffer (50 mM Tris-HCl pH 8.0, 120 mM NaCl, 5 mM EGTA, 1.5 mM EDTA, 0.5% NP-40); immunoblotting (Fig. 3a)"}, "[2]": {"molecular_target": "T2, Endogenous Plk4 (human (endogenous in U2OS)) (UniProt O00444)", "T2 sequence": "T1 sequence", "test": "co-IP; endogenous Plk4 extracted from U2OS cells immunoprecipitated by anti-Plk4; immunoblotting (Fig. 3b)"}, "[3]": {"molecular_target": "T3, Endogenous STIL (human (endogenous in U2OS)) (UniProt Q15468)", "T3 sequence": "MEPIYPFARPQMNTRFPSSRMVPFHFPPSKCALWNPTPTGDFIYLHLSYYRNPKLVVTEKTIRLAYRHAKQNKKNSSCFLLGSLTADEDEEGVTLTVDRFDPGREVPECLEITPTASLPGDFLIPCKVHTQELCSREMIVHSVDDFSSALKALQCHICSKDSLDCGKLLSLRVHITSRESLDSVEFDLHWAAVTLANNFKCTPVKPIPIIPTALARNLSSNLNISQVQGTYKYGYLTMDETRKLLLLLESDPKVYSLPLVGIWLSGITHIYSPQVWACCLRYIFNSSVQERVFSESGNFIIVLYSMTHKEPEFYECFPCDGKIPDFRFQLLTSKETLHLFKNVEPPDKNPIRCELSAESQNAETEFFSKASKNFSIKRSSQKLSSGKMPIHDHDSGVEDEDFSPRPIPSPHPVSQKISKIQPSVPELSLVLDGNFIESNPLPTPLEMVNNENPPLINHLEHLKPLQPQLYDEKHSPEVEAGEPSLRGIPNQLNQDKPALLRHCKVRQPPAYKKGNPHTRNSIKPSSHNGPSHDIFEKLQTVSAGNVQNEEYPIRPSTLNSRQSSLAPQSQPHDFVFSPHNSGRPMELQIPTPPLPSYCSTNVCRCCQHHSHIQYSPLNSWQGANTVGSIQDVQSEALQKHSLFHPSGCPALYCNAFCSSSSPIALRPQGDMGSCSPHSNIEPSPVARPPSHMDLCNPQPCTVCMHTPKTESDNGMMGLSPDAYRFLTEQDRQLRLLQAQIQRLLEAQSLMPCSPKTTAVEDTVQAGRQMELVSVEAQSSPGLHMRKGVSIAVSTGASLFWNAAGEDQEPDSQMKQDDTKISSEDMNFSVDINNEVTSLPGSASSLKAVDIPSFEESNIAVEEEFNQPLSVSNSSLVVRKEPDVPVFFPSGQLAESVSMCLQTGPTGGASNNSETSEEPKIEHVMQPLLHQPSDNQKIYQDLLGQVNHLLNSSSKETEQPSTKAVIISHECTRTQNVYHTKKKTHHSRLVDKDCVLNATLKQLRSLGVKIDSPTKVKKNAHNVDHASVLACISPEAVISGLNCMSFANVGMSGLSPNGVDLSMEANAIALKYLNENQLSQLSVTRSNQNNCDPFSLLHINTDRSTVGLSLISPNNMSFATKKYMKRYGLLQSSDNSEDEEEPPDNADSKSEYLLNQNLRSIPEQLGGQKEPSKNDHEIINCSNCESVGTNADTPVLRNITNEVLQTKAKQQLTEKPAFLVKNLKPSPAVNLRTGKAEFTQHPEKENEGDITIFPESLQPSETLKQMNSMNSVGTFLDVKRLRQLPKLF", "test": "co-IP; endogenous STIL extracted from U2OS cells immunoprecipitated; cells with or without shPlk4; immunoblotting (Fig. 5f)"}, "[4]": {"molecular_target": "T4, GST-Plk4-KD (K41R) (UniProt O00444)", "T4 sequence": "T1 sequence with K41R", "test": "pull-down; bacterially generated GST-Plk4-WT or KD incubated with His-Cep131 (1-911 aa) and pulled down using GSH-agarose (Fig. 3c)"}, "[5]": {"molecular_target": "T5, GST-Plk4-WT (UniProt O00444)", "T5 sequence": "T1 sequence", "test": "pull-down; bacterially generated GST-Plk4-WT or KD incubated with His-Cep131 (1-911 aa) and pulled down using GSH-agarose (Fig. 3c)"}},
  "note": "Positions count from the first letter of the chain named. Results are given in words; binding and its absence hold for the method and conditions named. In cells and extracts the contact can be indirect. Some entries that bind do so weakly or less than the wild type. For some assays here: Tags and fused reporters may be left off the sequences shown.",
  "data": [
    {"binder": "B1", "values": [
      {"measurement": "binding", "setting": "[1]", "value": "binds"}
    ]},
    {"binder": "B2", "values": [
      {"measurement": "binding", "setting": "[2]", "value": "binds"},
      {"measurement": "binding", "setting": "[3]", "value": "binds"}
    ]},
    {"binder": "B3", "values": [
      {"measurement": "binding", "setting": "[4]", "value": "binds"},
      {"measurement": "binding", "setting": "[5]", "value": "binds"}
    ]}
  ]
}
